Laboratory results taken from publication PMC12135451.

Molecular target: C-terminal region of HOIP (Flag-HOIP construct) (human)
Assay: co-IP; asynchronous 293T cells transfected with Flag- and HA-tagged constructs; anti-Flag and/or anti-HA IP; lysis in EBC buffer (50 mM Tris pH 7.5, 120 mM NaCl, 0.5% NP-40), four washes with NETN buffer; immunoblot

B1: HA-p31^comet (protein, UniProt Q15013 1-274)
chain: MAAPEAEVLSSAAVPDLEWYEKSEETHASQIELLETSSTQEPLNASEAFCPRDCMVPVVFPGPVSQEGCCQFTCELLKHIMYQRQQLPLPYEQLKHFYRKPSPQAEEMLKKKPRATTEVSSRKCQQALAELESVLSHLEDFFARTLVPRVLILLGGNALSPKEFYELDLSLLAPYSVDQSLSTAACLRRLFRAIFMADAFSELQAPPLMGTVVMAQGHRNCGEDWFRPKLNYRVPSRGHKLTVTLSCGRPSIRTTAWEDYIWFQAPVTFKGFRE
- binding: binds

These are yes or no findings as the source states them, for the method shown. Binding seen in cells or lysates may run through a third protein. Binding can be weak; no strength is given. Where a sequence is shown, tags or fusion partners need not be part of it.
